{"source": "paper doi:10.1101/780460", "assay_in_all_cases": "co-IP", "key": {"[1]": {"molecular_target": "Flag-tagged SOD1^G93A (human) (UniProt P00441)"}, "[2]": {"molecular_target": "Flag-tagged SOD1^V148G (human) (UniProt P00441)"}, "[3]": {"molecular_target": "Flag-tagged SOD1^A4V (human) (UniProt P00441)"}, "[4]": {"molecular_target": "Flag-tagged SOD1 wild type (human) (UniProt P00441)"}, "[5]": {"molecular_target": "Flag-tagged SOD1^V148I (human) (UniProt P00441)"}, "[6]": {"molecular_target": "Flag-tagged SOD1^G85R (human) (UniProt P00441)"}}, "note": "No constants are given. Whether binding was seen depends on the method and setting. In cells and extracts the contact can be indirect. Some binding calls cover weakened binding; strength is not graded here."}
{"substance": "Myc-tagged TRAF6^ΔN (aa. 289-522) (from UniProt Q9Y4K3 289-522) (domain or fragment)", "values": [{"measurement": "binding", "setting": "[1]", "value": "binds"}, {"measurement": "binding", "setting": "[2]", "value": "binds"}, {"measurement": "binding", "setting": "[3]", "value": "binds"}, {"measurement": "binding", "setting": "[4]", "value": "no binding"}, {"measurement": "binding", "setting": "[5]", "value": "no binding"}, {"measurement": "binding", "setting": "[6]", "value": "binds"}]}
{"substance": "Myc-tagged TRAF6^ΔC (aa. 1-288) (from UniProt Q9Y4K3 1-288) (domain or fragment)", "values": [{"measurement": "binding", "setting": "[1]", "value": "no binding"}, {"measurement": "binding", "setting": "[4]", "value": "no binding"}, {"measurement": "binding", "setting": "[6]", "value": "no binding"}]}
